Experimental data reported in publication PMC3747992.
No constants are given. Whether binding was seen depends on the method and setting. A result given as binding can be weak or reduced; the word gives no strength. For part of these data: Where a sequence is shown, tags or fusion partners need not be part of it. For part of these data: Binding seen in cells or lysates may run through a third protein. One block for each molecule: values may come before it.

Key:
[1] = target: T1, heterogeneous nuclear ribonucleoprotein L (hnRNP L), endogenous (human (endogenous in U937 and primary PBM)) (UniProt P14866); test: co-IP; IP with anti-hnRNP L antibody from lysates of U937 cells and primary human PBM treated with IFN-γ in normoxia or hypoxia for 24 h; lysates with or without RNase A; immunoblot for hnRNP A2/B1, DRBP76, VHL; also after HA-VHL overexpression in hypoxia (Figure S7)
T1 sequence: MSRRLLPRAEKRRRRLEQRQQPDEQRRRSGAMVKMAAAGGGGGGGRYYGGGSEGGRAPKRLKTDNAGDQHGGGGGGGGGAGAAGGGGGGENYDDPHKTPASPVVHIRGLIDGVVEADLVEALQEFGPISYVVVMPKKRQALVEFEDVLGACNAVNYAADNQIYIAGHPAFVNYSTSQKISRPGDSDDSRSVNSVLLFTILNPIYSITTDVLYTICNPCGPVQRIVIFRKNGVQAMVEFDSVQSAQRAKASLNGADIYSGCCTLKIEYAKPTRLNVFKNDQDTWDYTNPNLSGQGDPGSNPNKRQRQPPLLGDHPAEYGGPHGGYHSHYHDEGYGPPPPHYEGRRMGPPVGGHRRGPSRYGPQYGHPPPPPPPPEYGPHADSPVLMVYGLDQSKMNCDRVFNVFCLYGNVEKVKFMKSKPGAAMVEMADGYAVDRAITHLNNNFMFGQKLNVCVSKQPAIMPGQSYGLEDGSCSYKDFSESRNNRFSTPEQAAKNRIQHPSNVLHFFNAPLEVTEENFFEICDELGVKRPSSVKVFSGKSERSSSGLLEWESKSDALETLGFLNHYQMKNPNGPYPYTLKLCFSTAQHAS

GST-hnRNP L (human) = target: T2, GST-hnRNP L (human) (UniProt P14866); test: pull-down; GST fusion (GST-hnRNP L or GST-hnRNP A2/B1) or GST immobilised on glutathione-agarose; 1 µg recombinant proteins in 20 mM HEPES pH 7.5, 200 mM KCl, 5 mM MgCl2, 0.2% BSA, 10% glycerol, 0.1% Nonidet P-40; 4°C, 2 h; immunoblot; both purified
T2 sequence: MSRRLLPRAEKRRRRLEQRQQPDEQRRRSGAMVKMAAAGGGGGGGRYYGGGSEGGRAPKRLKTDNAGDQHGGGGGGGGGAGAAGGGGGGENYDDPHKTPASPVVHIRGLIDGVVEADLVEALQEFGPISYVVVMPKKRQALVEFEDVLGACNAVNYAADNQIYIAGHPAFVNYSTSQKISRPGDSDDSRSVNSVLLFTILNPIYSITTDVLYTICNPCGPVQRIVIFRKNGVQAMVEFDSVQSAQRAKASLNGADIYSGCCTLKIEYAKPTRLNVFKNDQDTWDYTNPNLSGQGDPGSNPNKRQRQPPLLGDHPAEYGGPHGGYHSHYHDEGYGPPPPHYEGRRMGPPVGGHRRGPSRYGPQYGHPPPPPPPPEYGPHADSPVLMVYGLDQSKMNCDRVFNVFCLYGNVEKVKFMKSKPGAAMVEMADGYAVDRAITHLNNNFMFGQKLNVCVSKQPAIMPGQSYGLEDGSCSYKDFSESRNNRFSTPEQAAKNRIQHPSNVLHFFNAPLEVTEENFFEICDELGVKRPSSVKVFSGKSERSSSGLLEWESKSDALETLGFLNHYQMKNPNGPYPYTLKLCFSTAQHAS

[2] = target: recombinant His-tagged DRBP76; test: co-IP; recombinant DRBP76 and hnRNP A2/B1 (5 pmol each) with phospho-mimetic hnRNP L Y359D (5 pmol) and HSR RNA (5 pmol), 1 h on ice; IP with anti-DRBP76 antibody, immunoblot anti-hnRNP A2/B1; both purified

binding [1]: binds
Molecule: DRBP76 (double-stranded RNA binding protein 76), endogenous

binding (GST-hnRNP L (human)): binds
Molecule: recombinant His-tagged DRBP76

binding [2]: binds
B1: recombinant His-tagged phospho-mimetic hnRNP L (Y359D) (protein, UniProt P14866 1-589)
chain: MSRRLLPRAEKRRRRLEQRQQPDEQRRRSGAMVKMAAAGGGGGGGRYYGGGSEGGRAPKRLKTDNAGDQHGGGGGGGGGAGAAGGGGGGENYDDPHKTPASPVVHIRGLIDGVVEADLVEALQEFGPISYVVVMPKKRQALVEFEDVLGACNAVNYAADNQIYIAGHPAFVNYSTSQKISRPGDSDDSRSVNSVLLFTILNPIYSITTDVLYTICNPCGPVQRIVIFRKNGVQAMVEFDSVQSAQRAKASLNGADIYSGCCTLKIEYAKPTRLNVFKNDQDTWDYTNPNLSGQGDPGSNPNKRQRQPPLLGDHPAEYGGPHGGYHSHYHDEGYGPPPPHYEGRRMGPPVGGHRRGPSRDGPQYGHPPPPPPPPEYGPHADSPVLMVYGLDQSKMNCDRVFNVFCLYGNVEKVKFMKSKPGAAMVEMADGYAVDRAITHLNNNFMFGQKLNVCVSKQPAIMPGQSYGLEDGSCSYKDFSESRNNRFSTPEQAAKNRIQHPSNVLHFFNAPLEVTEENFFEICDELGVKRPSSVKVFSGKSERSSSGLLEWESKSDALETLGFLNHYQMKNPNGPYPYTLKLCFSTAQHAS
